# In all, about 1,600 compounds went through this assay and about 420 (26%) were called active. The shares of active, inactive and inconclusive entries below differ from those in the screen. Calls come from the whole dose curve; as a rule, active = well fitted inhibition curve with a large enough effect; inconclusive = small, poorly fitted or top-dose-only effect; inactive = flat fitted curve, though single readings scatter. Potencies of inconclusive entries are doubtful fits and often do not repeat.
# Assay: qHTS for Inhibitors of TGF-b: Cytotox Counterscreen for Cherry Picks; note: nearly all actives have a fitted effect of over 70% in size
# Details: HepG2 CAGA-GFP viability, ATP luminescence, 18 h, cells stimulated with TGF-beta, 500 pg/mL; activity, negative = cytotoxicity: at 46.1 µM (top of the series)
# From the text: TGF-b is a main component in the TGF-b signaling pathway which plays diverse roles in cellular and development pathways. TGF-b is mediated by transcription factors called "Smads". Although the Smad-dependent pathway is the primary canonical TGF-b signaling mode, TGF-b1 can also activate alternative signaling pathways, including those involving MAPK (ERK, JNK and p38). This interaction may mediate or enhance Smad-dependent responses, or can exert Smad-independent effects. The complexity of this signaling cascade allows the TGF-b superfamily to perform unique, overlapping or redundant functions. We believe that targeting the TGF-beta pathway at the Smad-transcription factor level may eliminate the consequences of disrupting the entire pathway and offer specificity without affecting other signaling pathways. Smad3 is the primary transducer of TGF-b's signals and Smad3 regulates many functions attributed to TGF-b signaling. We hypothesize that Smad3 inhibitors will selectively eliminate Smad3-specific TGF-beta signals without undesired off-target effects. We aim to identify Smad3-small molecule antagonists using a quantitative high throughput screening (qHTS) approach. A high-throughput assay was developed to screen the NIH Molecular Libraries Small Molecule Repository (MLSMR). This is a cell based assay, where TGF-b is tagged with GFP. This is a counterscreen that evaluates the cytotoxicity of the compounds that were identified as hits in the primary cell-based screen (AID 588855). MH087449NIH Chemical Genomics Center [NCGC] NIH Molecular Libraries Probe Centers Network [MLPCN] MLPCN Grant: MH087449 Assay Submitter (PI): Sushil Rane, National Institute of Diabetes and Kidney Diseases
# Suspensions of trypsinized HEPG2 CAGA-GFP cells were dispensed into white, tissue culture-treated, solid 1536-well plates at 5uL/well (1000 cells/well final concentration) in DMEM medium supplemented with 1% FBS. Plates were incubated at 37 degrees C for 2 hours, after which 23 nL of compounds or DMSO were delivered to each well using a pin tool. One uL of recombinant TGF-beta in DMEM (1% FBS) was then dispensed (500 pg/mL final concentration), and plates were incubated at 37 degrees C for 18 hours. Two uL of CellTiter Glo (Promega), a luminescence-based viability reagent, was dispensed, followed by a 10 minute room temperature incubation. The plates were then measured on a PerkinElmer ViewLux plate reader for luminescence (clear filter) using a 5 second exposure. The %Activity was determined from the corrected luminescence values. Wells containing media only (no cells) were used to normalize %Activity of identified toxic compounds; media-only wells corresponded to 100%Activity (complete cell-killing), while DMSO-dosed cell controls were used to normalize 0%Activity (no toxicity). Concentration-response curves were fitted to the signals arising from the resulting luminescence. The concentration-effect curves were then classified based on curve quality (r2), response magnitude and degree of measured activity, and compounds were subsequently categorized based on their curve class.
# Potency is the fitted concentration of half-maximal effect.
SMILES,Potency,"activity, negative = cytotoxicity"
Cc1cccc(/C=C/C(=O)c2ccc([N+](=O)[O-])o2)c1,active: 5.17 µM,–
COc1ccc(N(C(=O)CCl)C(C(=O)NC2CCCCC2)c2cccnc2)cc1 (stereo not drawn),active: 11.6 µM,–
O=C(c1ccc([N+](=O)[O-])s1)N1CCc2ccccc2C1,"inconclusive: 11.6 µM [inhibitor, partial curve]",–
Clc1ccccc1Nc1nc(-c2ccncc2)nc2ccccc12,active: 23.1 µM,–
O=C(N/N=C/c1ccccc1O)c1cccc2ccccc12,"inconclusive: 2.59 µM [inhibitor, partial curve]",–
COC(=O)[C@@]1(Cc2ccccc2)[C@H]2C(=O)N(Cc3ccccc3)C(=O)[C@H]2[C@H]2CN=C(SCC3CC3)N21,"inconclusive: 23.1 µM [inhibitor, single point]",–
COc1cc(/C=C2\Oc3ccc(C#Cc4ccc(O)cc4)cc3C2=O)cc(OC)c1,"inconclusive: 7.31 µM [inhibitor, partial curve]",–
O=C(Nc1ccc([N+](=O)[O-])cc1)Nc1ccon1,inactive,–
COc1ccc(OC)c(CN2CCCC(C(=O)c3ccccc3SC)C2)c1 (stereo not drawn),"inconclusive: 25.9 µM [inhibitor, partial curve]",–
CCC(=O)NC(Nc1sc2c(c1C(=O)OC)CCC2)C(Cl)(Cl)Cl (stereo not drawn),inactive,–
Nc1nn(S(=O)(=O)c2ccccc2)cc1-c1ccc([N+](=O)[O-])cc1,inactive,–
COc1ccc(Nc2nc(N3CCCC3)nc3ccccc23)c(OC)c1,"inconclusive: 29.1 µM [inhibitor, single point]",–
Cc1nc(N=C(N)N)nc2ccccc12,"inconclusive: 16.4 µM [inhibitor, single point]",–
Cc1ccc(S(=O)(=O)Nc2cccc3c2O[C@H](CN(C)Cc2ccc(-c4ccccc4)cc2)[C@@H](C)CN([C@H](C)CO)C3=O)cc1,inactive,–
C/C(=N/NC(=O)c1ccc(C(C)(C)C)cc1)c1ccccn1,"inconclusive: 0.517 µM [inhibitor, full curve, poor fit]",–
COc1ccc(C2=NN(C(=O)COC(=O)c3ccc(S(C)(=O)=O)c([N+](=O)[O-])c3)C(c3ccco3)C2)cc1 (stereo not drawn),"inconclusive: 16.4 µM [inhibitor, single point]",–
Cc1ccc(SC[C@H](C)CN2CC[C@H](C(C)(C)C)CCC2=O)cc1,"inconclusive: 18.4 µM [inhibitor, partial curve]",–
CC(C)(C)c1ccc(Cn2cnc(-c3ccc([N+](=O)[O-])cc3)c2)cc1,"inconclusive: 25.9 µM [inhibitor, single point]",–
O=C(Nc1cccc(Cl)c1)Nc1nnc(-c2ccncc2)s1,"inconclusive: 6.51 µM [inhibitor, full curve]",–
Oc1c(C(c2ccccc2Cl)N2CCCC2)ccc2cccnc12 (stereo not drawn),–,inconclusive: -35.9% [inhibitor]
CCOc1nc(N=C(N)N)nc2c(C)cccc12,"inconclusive: 16.4 µM [inhibitor, partial curve]",–
COc1ccc(-c2c/c(=N\c3nc(-c4ccccc4)c(C)s3)c3ccccc3o2)cc1O,"inconclusive: 29.1 µM [inhibitor, single point]",–

SMILES,Potency,"activity, negative = cytotoxicity"
COc1ccc(-c2cc(-c3c(O)c(OC)c4occc4c3OC)[nH]n2)cc1OC,"inconclusive: 16.4 µM [inhibitor, single point]",–
Oc1ccc(C[C@H]2CNC(=S)N2CC2CCCN2C[C@H](Cc2ccc(O)cc2)N2C[C@H](Cc3ccc(O)cc3)N(CC3CCCCC3)C2=S)cc1 (stereo partly drawn),active: 11.6 µM,–
O=S(=O)(NCCOc1ccccc1Cl)c1ccc2oc3ccccc3c2c1,"inconclusive: 29.1 µM [inhibitor, single point]",–
Cc1nc2cc(-c3cccc(F)c3)nn2c(C)c1CCC(=O)NC(C)c1ccc2c(c1)OCCO2 (stereo not drawn),inactive,–
COc1ccc(S(=O)(=O)Nc2cc(Sc3ncn[nH]3)c(O)c3ccccc23)cc1,"inconclusive: 20.6 µM [inhibitor, single point]",–
Cc1cc(Cl)c(S(=O)(=O)N2CCN(c3ccccn3)CC2)cc1OCC(=O)NC1CCCCC1,"inconclusive: 20.6 µM [inhibitor, single point]",–
Oc1ccc(C[C@H]2CNC(=S)N2C[C@H]2CCCN2C[C@H](Cc2ccccc2)N2C[C@H](Cc3ccc(O)cc3)N(CC3CCCCCC3)C2=S)cc1,"inconclusive: 16.4 µM [inhibitor, single point]",–
Cc1ccc(-c2c(C(=O)NCc3ccc(F)cc3)oc(=O)c3ccccc23)cc1,inactive,–
COc1ccc(NS(=O)(=O)c2cc(NC(=O)CNC(=O)c3cccc(OC)c3)ccc2C)cc1,inactive,–
O=C(Nc1ccccn1)c1ccc([N+](=O)[O-])o1,"inconclusive: 29.1 µM [inhibitor, single point]",–
C=C1C2=C(C(=O)N1OC)[C@@H](O)[C@@](C)(O)[C@@H](CCCCC)O2,inactive,–
CC(=O)Nc1ccc(N=Cc2c(O)c(C(=O)Nc3ccccc3)cc3ccccc23)cc1,active: 11.6 µM,–
O=C(/C=C/c1cccc([N+](=O)[O-])c1)c1ccc([N+](=O)[O-])o1,active: 8.2 µM,–
Cc1cc(/C=N/NC(N)=S)c(C)n1-c1ccc(Br)cc1,"inconclusive: 8.2 µM [inhibitor, partial curve]",–
O=C(Nc1ccc(S(=O)(=O)N2CCOCC2)cc1)c1ccc([N+](=O)[O-])o1,active: 13 µM,–
Cc1cccc2sc(N(CCCN(C)C)C(=O)CCS(=O)(=O)c3ccccc3)nc12,active: 18.4 µM,–
CC(C)C(=O)N1CCN(c2ccc(NC(=O)c3ccc([N+](=O)[O-])o3)cc2)CC1,active: 10.3 µM,–
COc1ccc(N2CCCC2)c(NC(=O)c2ccc([N+](=O)[O-])o2)c1,"inconclusive: 23.1 µM [inhibitor, single point]",–
OCc1ccc(O)c2ncccc12,"inconclusive: 1.84 µM [inhibitor, full curve]",–
COc1cc(C2C3=C(COC3=O)OC(C)(C)Oc3cc4c(cc32)OCO4)cc(OC)c1OC (stereo not drawn),inactive,–
CCC(C)Nc1nc(-c2ccccn2)nc2ccccc12 (stereo not drawn),"inconclusive: 4.11 µM [inhibitor, full curve]",–

# A draw from above in order of heavy-atom count, low to high:
SMILES,Potency,"activity, negative = cytotoxicity"
CCC(C)Nc1nc(-c2ccccn2)nc2ccccc12 (stereo not drawn),"inconclusive: 4.11 µM [inhibitor, full curve]",–
O=S(=O)(NCCOc1ccccc1Cl)c1ccc2oc3ccccc3c2c1,"inconclusive: 29.1 µM [inhibitor, single point]",–
Oc1ccc(C[C@H]2CNC(=S)N2CC2CCCN2C[C@H](Cc2ccc(O)cc2)N2C[C@H](Cc3ccc(O)cc3)N(CC3CCCCC3)C2=S)cc1 (stereo partly drawn),active: 11.6 µM,–

# Reference: PubChem BioAssay AID720535 (National Center for Advancing Translational Sciences (NCATS), 2013)
